Laboratory results taken from PubChem BioAssay AID272 (DTP/NCI, 2004).
The list does not hold the whole screen: it is rich in T/C values a quarter to a half above the control, in often repeated tests (any T/C) and in doses without a T/C. Further doses and runs are listed elsewhere. T/C is the treated group as % of the vehicle group. Some doses have a count of surviving animals in place of a T/C: the source holds a T/C of zero for them, seemingly a mark for toxic or unscored doses. Some doses without a T/C left all or most animals alive at the check, yet need not have been tolerated: the source hardly ever lists a survival T/C far under the control, and the zero likely stands for such cases as well. Counts of survivors are from the toxicity check (mostly the fifth day) where no day follows; animals may have died later. Schedule codes are those of the source, read here as Q, the interval in days (D) or hours (H), X, the number of doses. Some doses were run more than once; their values stand side by side, smallest first.

Test system: Lewis lung carcinoma i.m., BDF1 mice, T/C %
Assay: NCI In Vivo Anticancer Drug Screen. Data for tumor model Lewis Lung Carcinoma (intramuscular) in B6D2F1 (BDF1) mice
In short: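 Compound given to mice with transplantable tumours; survival or tumour size compared against the vehicle control group, reported as T divided by C.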

[1] = T/C endpoint: median survival time, dose: 200.0 mg/kg/injection, schedule: Q01DX011 (ip), vehicle: saline, higher T/C = longer survival
[2] = T/C endpoint: median survival time, dose: 100.0 mg/kg/injection, schedule: Q01DX011 (ip), vehicle: saline, higher T/C = longer survival
[3] = T/C endpoint: median survival time, dose: 1.0 mg/kg/injection, schedule: Q01DX011 (ip), vehicle: saline, higher T/C = longer survival
[4] = T/C endpoint: median survival time, dose: 0.25 mg/kg/injection, schedule: Q01DX011 (ip), vehicle: saline, higher T/C = longer survival
[5] = T/C endpoint: median survival time, dose: 0.5 mg/kg/injection, schedule: Q01DX011 (ip), vehicle: saline, higher T/C = longer survival
[6] = T/C endpoint: median survival time, dose: 32.0 mg/kg/injection, schedule: Q01DX011 (ip), vehicle: saline, higher T/C = longer survival

## CC(=O)[C@@]1(O)CC[C@H]2[C@@H]3C[C@H](C)C4=CC(=O)C=C[C@]4(C)[C@@]3(F)[C@@H](O)C[C@@]21C
T/C endpoint: mean tumor weight, dose: 100.0 mg/kg/injection, schedule: Q01DX011 (ip), vehicle: steroid suspending solution, higher T/C = larger tumour
  survivor count: 4 of 8
T/C endpoint: median survival time, dose: 12.5 mg/kg/injection, schedule: Q01DX011 (ip), vehicle: steroid suspending solution, higher T/C = longer survival
  survivor count: 6 of 8
T/C endpoint: median survival time, dose: 50.0 mg/kg/injection, schedule: Q01DX011 (ip), vehicle: steroid suspending solution, higher T/C = longer survival
  survivor count: 6 of 8 and 7 of 8
T/C endpoint: median survival time, dose: 100.0 mg/kg/injection, schedule: Q01DX011 (ip), vehicle: steroid suspending solution, higher T/C = longer survival
  survivor count: 3 of 8 and 4 of 8

## CCCC(=O)Nc1ncnc2c1ncn2C1OC2COP(=O)(O)OC2C1OC(=O)CCC (stereo unspecified)
[1]
  survivor count: 7 of 7

## Cn1cnc([N+](=O)[O-])c1Sc1ncnc2c1ncn2C1OC(CO)C(O)C1O (stereo unspecified)
T/C endpoint: mean tumor weight, dose: 50.0 mg/kg/injection, schedule: Q01DX011 (ip), vehicle: saline, higher T/C = larger tumour
  survivor count: 5 of 8
T/C endpoint: mean tumor weight, dose: 100.0 mg/kg/injection, schedule: Q01DX011 (ip), vehicle: saline, higher T/C = larger tumour
  survivor count: 5 of 8
T/C endpoint: mean tumor weight, dose: 200.0 mg/kg/injection, schedule: Q01DX011 (ip), vehicle: saline, higher T/C = larger tumour
  survivor count: 2 of 8
T/C endpoint: median survival time, dose: 50.0 mg/kg/injection, schedule: Q01DX011 (ip), vehicle: saline, higher T/C = longer survival
  survivor count: 5 of 8
[2]
  survivor count: 5 of 8
[1]
  survivor count: 2 of 8
T/C endpoint: median survival time, dose: 400.0 mg/kg/injection, schedule: Q01DX011 (ip), vehicle: saline, higher T/C = longer survival
  survivor count: 1 of 8

## O=c1ccc2nc3ccccc3sc-2c1
T/C endpoint: median survival time, dose: 12.5 mg/kg/injection, schedule: Q01DX011 (ip), vehicle: saline with Tween-80, higher T/C = longer survival
  survivor count: 8 of 8
T/C endpoint: median survival time, dose: 50.0 mg/kg/injection, schedule: Q01DX011 (ip), vehicle: saline with Tween-80, higher T/C = longer survival
  survivor count: 8 of 8
T/C endpoint: median survival time, dose: 100.0 mg/kg/injection, schedule: Q01DX011 (ip), vehicle: saline with Tween-80, higher T/C = longer survival
  survivor count: 7 of 8

## O=c1[nH]cc(N(CCCl)CCCl)c(=O)[nH]1
T/C endpoint: median survival time, dose: 1.0 mg/kg/injection, schedule: Q01DX011 (ip), vehicle: other, higher T/C = longer survival
  survivor count: 5 of 8
[3]
  survivor count: 6 of 8
T/C endpoint: median survival time, dose: 2.0 mg/kg/injection, schedule: Q01DX011 (ip), vehicle: saline, higher T/C = longer survival
  survivor count: 1 of 8
T/C endpoint: median survival time, dose: 4.0 mg/kg/injection, schedule: Q01DX011 (ip), vehicle: saline, higher T/C = longer survival
  survivor count: 0 of 8

## O=C1CN=C(c2ccc[nH]2)c2cc(Cl)ccc2N1
T/C endpoint: median survival time, dose: 50.0 mg/kg/injection, schedule: Q01DX011 (ip), vehicle: Klucel (hydroxypropylcellulose) (HPC), higher T/C = longer survival
  survivor count: 8 of 8
T/C endpoint: median survival time, dose: 100.0 mg/kg/injection, schedule: Q01DX011 (ip), vehicle: Klucel (hydroxypropylcellulose) (HPC), higher T/C = longer survival
  survivor count: 5 of 8
T/C endpoint: median survival time, dose: 200.0 mg/kg/injection, schedule: Q01DX011 (ip), vehicle: Klucel (hydroxypropylcellulose) (HPC), higher T/C = longer survival
  survivor count: 6 of 8
T/C endpoint: median survival time, dose: 400.0 mg/kg/injection, schedule: Q01DX011 (ip), vehicle: Klucel (hydroxypropylcellulose) (HPC), higher T/C = longer survival
  survivor count: 3 of 8
T/C endpoint: median survival time, dose: 800.0 mg/kg/injection, schedule: Q01DX011 (ip), vehicle: Klucel (hydroxypropylcellulose) (HPC), higher T/C = longer survival
  survivor count: 0 of 6

## [N-]=[N+]=CC(=O)CCC(N)C(=O)O (stereo unspecified)
T/C endpoint: mean tumor weight, dose: 120.0 micrograms/kg/injection, schedule: Q01DX011 (ip), vehicle: saline, higher T/C = larger tumour
  survivor count: 5 of 8
T/C endpoint: median survival time, dose: 0.12 mg/kg/injection, schedule: Q01DX011 (ip), vehicle: saline, higher T/C = longer survival
  survivor count: 2 of 8
[4]
  survivor count: 0 of 8
[5]
  survivor count: 0 of 8
[3]
  survivor count: 0 of 8
T/C endpoint: median survival time, dose: 15.0 micrograms/kg/injection, schedule: Q01DX011 (ip), vehicle: saline, higher T/C = longer survival
  survivor count: 6 of 8
T/C endpoint: median survival time, dose: 120.0 micrograms/kg/injection, schedule: Q01DX011 (ip), vehicle: saline, higher T/C = longer survival
  survivor count: 5 of 8

## c1ccc(OCCC[P+](c2ccccc2)(c2ccccc2)c2ccccc2)cc1
T/C endpoint: median survival time, dose: 5.0 mg/kg/injection, schedule: Q01DX011 (ip), vehicle: saline with Tween-80, higher T/C = longer survival
  survivor count: 4 of 8
T/C endpoint: median survival time, dose: 10.0 mg/kg/injection, schedule: Q01DX011 (ip), vehicle: saline with Tween-80, higher T/C = longer survival
  survivor count: 5 of 8
T/C endpoint: median survival time, dose: 20.0 mg/kg/injection, schedule: Q01DX011 (ip), vehicle: saline with Tween-80, higher T/C = longer survival
  survivor count: 3 of 8
T/C endpoint: median survival time, dose: 40.0 mg/kg/injection, schedule: Q01DX011 (ip), vehicle: saline with Tween-80, higher T/C = longer survival
  survivor count: 5 of 8

## N=[N+]=CC(=O)CCC(NC(=O)C(CCC(=O)C=[N+]=N)NC(=O)CCC(N)C(=O)O)C(=O)O (stereo unspecified)
T/C endpoint: mean tumor weight, dose: 0.06 mg/kg/injection, schedule: Q01DX011 (ip), vehicle: saline, higher T/C = larger tumour
  survivor count: 5 of 8
T/C endpoint: median survival time, dose: 0.06 mg/kg/injection, schedule: Q01DX011 (ip), vehicle: saline, higher T/C = longer survival
  survivor count: 5 of 8
T/C endpoint: median survival time, dose: 0.1 mg/kg/injection, schedule: Q01DX009 (ip), vehicle: Klucel (hydroxypropylcellulose) (HPC), higher T/C = longer survival
  survivor count: 10 of 10
T/C endpoint: median survival time, dose: 0.13 mg/kg/injection, schedule: Q01DX011 (ip), vehicle: saline, higher T/C = longer survival
  survivor count: 2 of 8
T/C endpoint: median survival time, dose: 0.2 mg/kg/injection, schedule: Q01DX009 (ip), vehicle: Klucel (hydroxypropylcellulose) (HPC), higher T/C = longer survival
  survivor count: 10 of 10
T/C endpoint: median survival time, dose: 0.2 mg/kg/injection, schedule: Q01DX011 (ip), vehicle: saline, higher T/C = longer survival
  survivor count: 10 of 10
[4]
  survivor count: 0 of 8
T/C endpoint: median survival time, dose: 0.4 mg/kg/injection, schedule: Q01DX009 (ip), vehicle: Klucel (hydroxypropylcellulose) (HPC), higher T/C = longer survival
  survivor count: 10 of 10
[5]
  survivor count: 0 of 8
T/C endpoint: median survival time, dose: 0.8 mg/kg/injection, schedule: Q01DX009 (ip), vehicle: Klucel (hydroxypropylcellulose) (HPC), higher T/C = longer survival
  survivor count: 10 of 10
T/C endpoint: median survival time, dose: 0.8 mg/kg/injection, schedule: Q01DX011 (ip), vehicle: saline, higher T/C = longer survival
  survivor count: 10 of 10
[3]
  survivor count: 0 of 8
T/C endpoint: median survival time, dose: 1.6 mg/kg/injection, schedule: Q01DX009 (ip), vehicle: Klucel (hydroxypropylcellulose) (HPC), higher T/C = longer survival
  survivor count: 9 of 10
T/C endpoint: median survival time, dose: 1.6 mg/kg/injection, schedule: Q01DX011 (ip), vehicle: saline, higher T/C = longer survival
  survivor count: 9 of 10

## Cc1cc[n+](CCc2ccccc2)cc1
[2]
  survivor count: 0 of 8
[1]
  survivor count: 0 of 8

## O=c1[nH]cc(F)c(=O)n1C1OC(CO)C(O)C1O (stereo unspecified)
T/C endpoint: median survival time, dose: 150.0 mg/kg/injection, schedule: Q01DX011 (ip), vehicle: saline, higher T/C = longer survival
  survivor count: 8 of 8
T/C endpoint: median survival time, dose: 300.0 mg/kg/injection, schedule: Q01DX011 (ip), vehicle: saline, higher T/C = longer survival
  survivor count: 7 of 8

## O=NN(CCCl)C(=O)Nc1ccc(CCO)cc1
T/C endpoint: median survival time, dose: 12.5 mg/kg/injection, schedule: Q07DX003 (ip), vehicle: Klucel (hydroxypropylcellulose) (HPC), higher T/C = longer survival
  survivor count: 5 of 8
T/C endpoint: median survival time, dose: 25.0 mg/kg/injection, schedule: Q07DX003 (ip), vehicle: Klucel (hydroxypropylcellulose) (HPC), higher T/C = longer survival
  survivor count: 2 of 8
T/C endpoint: median survival time, dose: 50.0 mg/kg/injection, schedule: Q07DX003 (ip), vehicle: Klucel (hydroxypropylcellulose) (HPC), higher T/C = longer survival
  survivor count: 1 of 8
T/C endpoint: median survival time, dose: 100.0 mg/kg/injection, schedule: Q07DX003 (ip), vehicle: Klucel (hydroxypropylcellulose) (HPC), higher T/C = longer survival
  survivor count: 4 of 8
T/C endpoint: median survival time, dose: 200.0 mg/kg/injection, schedule: Q07DX003 (ip), vehicle: Klucel (hydroxypropylcellulose) (HPC), higher T/C = longer survival
  survivor count: 0 of 8

## ClC1=NC(Cl)C(Cl)=N/C1=N\c1ncn[nH]1 (stereo unspecified)
[6]
  survivor count: 5 of 8
T/C endpoint: median survival time, dose: 64.0 mg/kg/injection, schedule: Q01DX011 (ip), vehicle: saline, higher T/C = longer survival
  survivor count: 0 of 8
T/C endpoint: median survival time, dose: 128.0 mg/kg/injection, schedule: Q01DX011 (ip), vehicle: saline, higher T/C = longer survival
  survivor count: 0 of 8

## COc1cc(C(=O)OC2CC34CCNC35CC(OC5(OC)C2O)c2cc3c(cc24)OCO3)ccc1O (stereo unspecified)
T/C endpoint: mean tumor weight, dose: 8.0 mg/kg/injection, schedule: Q01DX011 (ip), vehicle: carboxymethylcellulose (CMC), higher T/C = larger tumour
  survivor count: 2 of 8
T/C endpoint: median survival time, dose: 1.0 mg/kg/injection, schedule: Q01DX011 (ip), vehicle: carboxymethylcellulose (CMC), higher T/C = longer survival
  survivor count: 8 of 8
T/C endpoint: median survival time, dose: 8.0 mg/kg/injection, schedule: Q01DX011 (ip), vehicle: carboxymethylcellulose (CMC), higher T/C = longer survival
  survivor count: 2 of 8

## CCCCCCCCCCCCCCCCCC[n+]1cccc(C(=O)N2CCOCC2)c1
T/C endpoint: mean tumor weight (est.), dose: 32.0 mg/kg/injection, schedule: Q01DX011 (ip), vehicle: saline, higher T/C = larger tumour
  survivor count: 3 of 8
[6]
  survivor count: 3 of 8
